Substitutions are numbered along the chain they refer to. Results are given in words; binding and its absence hold for the method and conditions named. Some entries that bind do so weakly or less than the wild type.
Legend:
[1] = biological target: cynomolgus monkey TF-His (cynomolgus monkey); test: BLI (ForteBio Octet)
[2] = biological target: cynomolgus monkey TF-His (cynomolgus monkey); test: ELISA, plate coated with cynomolgus monkey TF-His, HRP anti-human IgG, OD450
[3] = biological target: cynomolgus monkey TF-His (cynomolgus monkey); test: ELISA, plate coated with c.TF-His

Measured: binding

B1: 2B12B10-hz1 (antibody, human IgG1, kappa, V domains shown)
VH: EVQLVESGGGLVQPGGSLRLSCAASGFAFSDSGMHWVRQAPGKGLEWVAYISRDSNTIYYADSVKGRFTISRDNAKNSLYLQMNSLRAEDTAVYYCGRRYYGDYFDYWGQGTLVTVSS
VL: DIVLTQSPATLSLSPGERATLSCRASQRVTNYLHWYQQKPGQSPRLLIKYASQSISGIPARFSGSGSGTDFTLTISSLEPEDFAVYFCQQSYNWPLTFGQGTKVEIKR
notes: Humanized IgG1 kappa
binds: all assays above

B2: 30G11B7-hz1 (antibody, human IgG1, kappa, V domains shown)
VH: B1 VH with Q13K, A28T, S32Y, H35F, D54G, N56T, Y95F, G97T
VL: EIVLTQSPDFQSVTPKEKVTITCRASQSISNYLHWYQQKPDQSPKLLIKYASQSISGVPSRFSGSGSGTDFTLTINSLEAEDAATYFCQQSYNWPLTFGQGTKVEIKR
notes: Humanized IgG1 kappa
binds: all assays above

B3: 22F11H5-hz1 (antibody, human IgG1, kappa, V domains shown)
VH: QVQLVQSGAEVKQPGASVKVSCKASGYTFTTYWMHWVRQAPGQGLEWMGMIDPSDSYTTYAQKFQGRVTLTVDTSTSTAYMELSSLRSEDTAVYYCARGSGPGLFAYWGQGTLVTVSS
VL: DIQETQSPSSLSASVGDRVTITCRASQDIRNYLNWYQQKPGKAPKLLIYHTSRLQSGVPSRFSGSGSGTDYTLTISSLQPEDFATYYCQQGNMPPYTFGQGTKVEIKR
notes: Humanized IgG1 kappa
binds: all assays above

B4: 27H8H3-hz1 (antibody, human IgG1, kappa, V domains shown)
VH: B3 VH with Q13K, T59S, A97T
VL: B3 VL with D28G, R30S, Q55H, G66V, Y71F, Y87F, M93T, P94L
notes: Humanized IgG1 kappa
binds: all assays above

— patent US20250333541A1, “ANTIBODY, AND DRUG CONJUGATE AND USE THEREOF” (EVOPOINT BIOSCIENCES CO., LTD., priority 2022, published 2025)
